Laboratory results published in paper PMC5554784.

Chains of the proteins cited; added tags and fusions are not shown.
UniProt Q96F86: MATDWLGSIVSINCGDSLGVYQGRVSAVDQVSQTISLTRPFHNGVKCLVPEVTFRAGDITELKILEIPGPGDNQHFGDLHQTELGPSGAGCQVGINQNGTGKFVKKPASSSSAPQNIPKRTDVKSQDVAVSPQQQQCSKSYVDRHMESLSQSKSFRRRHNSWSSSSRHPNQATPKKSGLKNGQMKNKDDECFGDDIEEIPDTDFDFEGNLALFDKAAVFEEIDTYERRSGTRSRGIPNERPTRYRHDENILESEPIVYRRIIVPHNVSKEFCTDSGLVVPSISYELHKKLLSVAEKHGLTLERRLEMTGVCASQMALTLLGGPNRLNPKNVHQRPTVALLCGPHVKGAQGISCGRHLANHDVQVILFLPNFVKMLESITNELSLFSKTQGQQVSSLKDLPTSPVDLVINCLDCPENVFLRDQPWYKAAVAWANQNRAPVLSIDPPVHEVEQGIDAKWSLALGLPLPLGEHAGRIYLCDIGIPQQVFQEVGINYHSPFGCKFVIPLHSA
UniProt Q8IZH2: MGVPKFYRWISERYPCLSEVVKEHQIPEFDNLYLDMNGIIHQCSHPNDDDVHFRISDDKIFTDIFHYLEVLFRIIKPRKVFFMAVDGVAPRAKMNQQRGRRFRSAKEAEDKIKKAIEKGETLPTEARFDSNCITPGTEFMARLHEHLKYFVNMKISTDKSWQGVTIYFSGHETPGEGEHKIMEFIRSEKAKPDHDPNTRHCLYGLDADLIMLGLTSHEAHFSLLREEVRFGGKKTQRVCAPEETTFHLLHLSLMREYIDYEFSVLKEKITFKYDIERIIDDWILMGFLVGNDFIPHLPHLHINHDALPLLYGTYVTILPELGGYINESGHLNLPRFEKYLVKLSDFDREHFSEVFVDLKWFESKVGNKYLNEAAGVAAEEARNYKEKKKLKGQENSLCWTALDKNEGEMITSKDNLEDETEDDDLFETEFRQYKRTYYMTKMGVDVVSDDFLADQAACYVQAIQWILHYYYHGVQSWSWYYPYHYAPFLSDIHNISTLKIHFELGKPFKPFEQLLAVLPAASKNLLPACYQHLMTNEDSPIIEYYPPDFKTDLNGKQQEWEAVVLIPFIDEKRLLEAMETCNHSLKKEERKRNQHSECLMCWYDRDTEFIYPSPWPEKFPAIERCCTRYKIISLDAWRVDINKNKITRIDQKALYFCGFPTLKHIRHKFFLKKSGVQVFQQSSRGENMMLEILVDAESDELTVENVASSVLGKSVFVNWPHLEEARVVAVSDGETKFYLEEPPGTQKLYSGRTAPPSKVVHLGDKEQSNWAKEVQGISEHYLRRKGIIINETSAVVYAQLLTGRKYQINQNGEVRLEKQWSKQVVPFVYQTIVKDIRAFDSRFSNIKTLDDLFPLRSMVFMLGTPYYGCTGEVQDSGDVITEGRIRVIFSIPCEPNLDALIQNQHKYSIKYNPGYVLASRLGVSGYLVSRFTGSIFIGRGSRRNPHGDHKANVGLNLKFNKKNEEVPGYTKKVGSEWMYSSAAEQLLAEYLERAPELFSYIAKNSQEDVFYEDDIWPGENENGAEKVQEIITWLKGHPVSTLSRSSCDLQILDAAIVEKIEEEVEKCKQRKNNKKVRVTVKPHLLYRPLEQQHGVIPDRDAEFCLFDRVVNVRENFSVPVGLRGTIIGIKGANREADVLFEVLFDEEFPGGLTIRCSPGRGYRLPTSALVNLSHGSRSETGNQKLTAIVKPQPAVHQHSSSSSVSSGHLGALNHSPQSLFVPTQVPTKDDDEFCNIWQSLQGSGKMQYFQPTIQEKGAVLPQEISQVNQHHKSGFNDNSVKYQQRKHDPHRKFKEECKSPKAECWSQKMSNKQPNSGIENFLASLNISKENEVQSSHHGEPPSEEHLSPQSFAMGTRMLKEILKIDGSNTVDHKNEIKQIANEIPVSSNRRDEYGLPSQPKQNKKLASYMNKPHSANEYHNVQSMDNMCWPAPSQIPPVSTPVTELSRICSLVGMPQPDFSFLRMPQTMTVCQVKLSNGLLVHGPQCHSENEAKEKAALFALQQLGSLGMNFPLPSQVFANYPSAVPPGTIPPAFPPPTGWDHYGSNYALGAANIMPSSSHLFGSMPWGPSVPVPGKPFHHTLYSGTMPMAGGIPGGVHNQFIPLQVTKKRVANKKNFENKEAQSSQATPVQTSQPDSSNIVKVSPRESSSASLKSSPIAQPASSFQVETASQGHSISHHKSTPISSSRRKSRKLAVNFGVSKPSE
UniProt A5YKK6: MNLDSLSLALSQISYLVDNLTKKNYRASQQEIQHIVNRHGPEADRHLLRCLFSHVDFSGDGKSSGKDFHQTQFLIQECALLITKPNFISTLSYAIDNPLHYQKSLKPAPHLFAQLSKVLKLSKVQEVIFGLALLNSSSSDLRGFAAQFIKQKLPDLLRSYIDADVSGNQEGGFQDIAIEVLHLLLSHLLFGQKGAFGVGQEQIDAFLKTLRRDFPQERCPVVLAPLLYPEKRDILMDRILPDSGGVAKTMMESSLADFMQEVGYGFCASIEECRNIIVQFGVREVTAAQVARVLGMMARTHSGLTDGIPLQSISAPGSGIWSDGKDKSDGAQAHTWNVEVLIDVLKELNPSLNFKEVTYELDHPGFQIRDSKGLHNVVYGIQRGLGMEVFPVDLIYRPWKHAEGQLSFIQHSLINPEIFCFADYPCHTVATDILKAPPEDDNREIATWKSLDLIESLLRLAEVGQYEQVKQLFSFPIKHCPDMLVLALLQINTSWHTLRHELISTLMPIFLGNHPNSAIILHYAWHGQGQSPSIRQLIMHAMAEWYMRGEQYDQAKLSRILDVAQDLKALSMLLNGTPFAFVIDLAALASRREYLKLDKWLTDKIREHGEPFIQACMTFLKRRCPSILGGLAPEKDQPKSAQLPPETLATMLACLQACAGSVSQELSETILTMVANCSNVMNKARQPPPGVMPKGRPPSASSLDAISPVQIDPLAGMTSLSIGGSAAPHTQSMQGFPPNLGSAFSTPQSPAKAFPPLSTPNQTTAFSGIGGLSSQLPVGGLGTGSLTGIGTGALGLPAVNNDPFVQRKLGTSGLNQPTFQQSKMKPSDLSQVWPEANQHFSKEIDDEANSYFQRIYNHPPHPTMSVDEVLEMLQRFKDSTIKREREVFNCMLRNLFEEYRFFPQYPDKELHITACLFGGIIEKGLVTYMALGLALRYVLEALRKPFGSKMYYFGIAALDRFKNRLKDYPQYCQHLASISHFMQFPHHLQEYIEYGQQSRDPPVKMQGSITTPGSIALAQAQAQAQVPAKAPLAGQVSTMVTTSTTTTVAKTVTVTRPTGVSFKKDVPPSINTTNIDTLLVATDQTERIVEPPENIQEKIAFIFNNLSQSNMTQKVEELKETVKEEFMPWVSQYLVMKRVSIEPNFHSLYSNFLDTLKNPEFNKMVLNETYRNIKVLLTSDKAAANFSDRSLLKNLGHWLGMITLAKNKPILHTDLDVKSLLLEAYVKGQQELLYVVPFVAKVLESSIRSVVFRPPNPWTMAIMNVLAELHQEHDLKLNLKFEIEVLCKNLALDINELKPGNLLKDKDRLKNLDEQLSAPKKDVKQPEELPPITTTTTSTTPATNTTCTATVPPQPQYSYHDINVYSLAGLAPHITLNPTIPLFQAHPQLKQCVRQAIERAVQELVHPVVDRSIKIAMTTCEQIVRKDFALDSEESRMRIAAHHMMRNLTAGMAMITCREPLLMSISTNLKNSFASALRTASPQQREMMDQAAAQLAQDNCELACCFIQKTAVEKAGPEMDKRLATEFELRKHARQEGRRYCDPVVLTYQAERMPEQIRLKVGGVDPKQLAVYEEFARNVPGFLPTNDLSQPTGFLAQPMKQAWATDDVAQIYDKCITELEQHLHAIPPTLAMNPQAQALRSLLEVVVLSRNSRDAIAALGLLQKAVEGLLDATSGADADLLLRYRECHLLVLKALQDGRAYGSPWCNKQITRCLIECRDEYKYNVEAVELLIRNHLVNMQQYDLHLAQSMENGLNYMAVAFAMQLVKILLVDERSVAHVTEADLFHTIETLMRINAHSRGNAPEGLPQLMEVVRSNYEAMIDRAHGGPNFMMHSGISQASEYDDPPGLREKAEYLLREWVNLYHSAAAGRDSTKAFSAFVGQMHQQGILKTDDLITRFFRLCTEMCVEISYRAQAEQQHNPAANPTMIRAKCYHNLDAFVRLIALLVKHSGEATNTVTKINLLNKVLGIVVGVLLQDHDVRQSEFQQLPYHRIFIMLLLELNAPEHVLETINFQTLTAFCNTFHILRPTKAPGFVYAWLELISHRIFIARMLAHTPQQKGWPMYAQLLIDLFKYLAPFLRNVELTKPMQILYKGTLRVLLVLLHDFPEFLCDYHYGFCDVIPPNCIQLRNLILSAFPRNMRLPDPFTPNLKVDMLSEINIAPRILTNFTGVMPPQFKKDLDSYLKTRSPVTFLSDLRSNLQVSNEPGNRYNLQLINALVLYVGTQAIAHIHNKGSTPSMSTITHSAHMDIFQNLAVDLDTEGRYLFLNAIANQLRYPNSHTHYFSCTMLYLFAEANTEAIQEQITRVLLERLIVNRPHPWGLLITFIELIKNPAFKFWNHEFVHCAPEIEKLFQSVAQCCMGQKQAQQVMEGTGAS

Experiments:
[1] = biological target: T1, YFP-Pat1b (human) (UniProt Q86TB9); experiment: affinity purification with mass spectrometry; GFP-Trap pull-down of YFP-Pat1b from HEK293 cells, mass spectrometry
T1 sequence: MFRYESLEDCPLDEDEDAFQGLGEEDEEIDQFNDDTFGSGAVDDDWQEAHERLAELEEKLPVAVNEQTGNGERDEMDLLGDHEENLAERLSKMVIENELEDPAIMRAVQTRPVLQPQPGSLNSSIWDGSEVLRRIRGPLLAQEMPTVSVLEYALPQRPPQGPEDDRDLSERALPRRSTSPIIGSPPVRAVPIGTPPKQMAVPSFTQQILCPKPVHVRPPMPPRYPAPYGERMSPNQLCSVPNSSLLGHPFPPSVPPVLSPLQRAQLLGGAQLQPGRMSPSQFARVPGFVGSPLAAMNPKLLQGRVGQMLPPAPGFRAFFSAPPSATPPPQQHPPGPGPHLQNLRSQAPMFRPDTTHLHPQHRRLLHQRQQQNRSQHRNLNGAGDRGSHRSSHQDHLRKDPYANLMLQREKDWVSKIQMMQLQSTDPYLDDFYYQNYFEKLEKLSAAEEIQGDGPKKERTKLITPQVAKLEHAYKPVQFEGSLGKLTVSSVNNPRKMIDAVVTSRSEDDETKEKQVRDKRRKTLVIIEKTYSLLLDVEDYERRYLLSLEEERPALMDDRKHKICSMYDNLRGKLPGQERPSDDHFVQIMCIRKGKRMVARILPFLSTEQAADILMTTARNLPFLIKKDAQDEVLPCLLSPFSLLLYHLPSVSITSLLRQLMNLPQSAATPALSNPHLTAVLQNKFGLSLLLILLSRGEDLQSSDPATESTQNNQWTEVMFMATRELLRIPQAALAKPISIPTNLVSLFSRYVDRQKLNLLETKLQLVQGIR

[2] = biological target: T2, FLAG-Pat1b (full-length) (human) (UniProt Q86TB9); experiment: affinity purification with mass spectrometry; FLAG-Pat1b or FLAG-GFP transiently expressed in HEK293 cells; total cell lysates on anti-FLAG M2 beads, eluted with FLAG peptide, SDS-PAGE, GELC/MS/MS
T2 sequence: T1 sequence

binding [1]: binds
Molecule: Dcp2 (from UniProt Q8IU60 1-420)

binding [1]: binds
Molecule: Edc3 (from UniProt Q96F86 1-508)

binding [1]: binds | binding [2]: binds
Molecule: Xrn1 (from UniProt Q8IZH2 1-1706)

binding [1]: binds | binding [2]: binds
B3: Edc4 (protein, UniProt Q6P2E9 1-1401)
chain: MASCASIDIEDATQHLRDILKLDRPAGGPSAESPRPSSAYNGDLNGLLVPDPLCSGDSTSANKTGLRTMPPINLQEKQVICLSGDDSSTCIGILAKEVEIVASSDSSISSKARGSNKVKIQPVAKYDWEQKYYYGNLIAVSNSFLAYAIRAANNGSAMVRVISVSTSERTLLKGFTGSVADLAFAHLNSPQLACLDEAGNLFVWRLALVNGKIQEEILVHIRQPEGTPLNHFRRIIWCPFIPEESEDCCEESSPTVALLHEDRAEVWDLDMLRSSHSTWPVDVSQIKQGFIVVKGHSTCLSEGALSPDGTVLATASHDGYVKFWQIYIEGQDEPRCLHEWKPHDGRPLSCLLFCDNHKKQDPDVPFWRFLITGADQNRELKMWCTVSWTCLQTIRFSPDIFSSVSVPPSLKVCLDLSAEYLILSDVQRKVLYVMELLQNQEEGHACFSSISEFLLTHPVLSFGIQVVSRCRLRHTEVLPAEEENDSLGADGTHGAGAMESAAGVLIKLFCVHTKALQDVQIRFQPQLNPDVVAPLPTHTAHEDFTFGESRPELGSEGLGSAAHGSQPDLRRIVELPAPADFLSLSSETKPKLMTPDAFMTPSASLQQITASPSSSSSGSSSSSSSSSSSLTAVSAMSSTSAVDPSLTRPPEELTLSPKLQLDGSLTMSSSGSLQASPRGLLPGLLPAPADKLTPKGPGQVPTATSALSLELQEVEPLGLPQASPSRTRSPDVISSASTALSQDIPEIASEALSRGFGSSAPEGLEPDSMASAASALHLLSPRPRPGPELGPQLGLDGGPGDGDRHNTPSLLEAALTQEASTPDSQVWPTAPDITRETCSTLAESPRNGLQEKHKSLAFHRPPYHLLQQRDSQDASAEQSDHDDEVASLASASGGFGTKVPAPRLPAKDWKTKGSPRTSPKLKRKSKKDDGDAAMGSRLTEHQVAEPPEDWPALIWQQQRELAELRHSQEELLQRLCTQLEGLQSTVTGHVERALETRHEQEQRRLERALAEGQQRGGQLQEQLTQQLSQALSSAVAGRLERSIRDEIKKTVPPCVSRSLEPMAGQLSNSVATKLTAVEGSMKENISKLLKSKNLTDAIARAAADTLQGPMQAAYREAFQSVVLPAFEKSCQAMFQQINDSFRLGTQEYLQQLESHMKSRKAREQEAREPVLAQLRGLVSTLQSATEQMAATVAGSVRAEVQHQLHVAVGSLQESILAQVQRIVKGEVSVALKEQQAAVTSSIMQAMRSAAGTPVPSAHLDCQAQQAHILQLLQQGHLNQAFQQALTAADLNLVLYVCETVDPAQVFGQPPCPLSQPVLLSLIQQLASDLGTRTDLKLSYLEEAVMHLDHSDPITRDHMGSVMAQVRQKLFQFLQAEPHNSLGKAARRLSLMLHGLVTPSLP

binding [1]: binds | binding [2]: binds
B4: Prp4 (protein, UniProt O43172 1-522)
chain: MASSRASSTQATKTKAPDDLVAPVVKKPHIYYGSLEEKERERLAKGESGILGKDGLKAGIEAGNINITSGEVFEIEEHISERQAEVLAEFERRKRARQINVSTDDSEVKACLRALGEPITLFGEGPAERRERLRNILSVVGTDALKKTKKDDEKSKKSKEEYQQTWYHEGPNSLKVARLWIANYSLPRAMKRLEEARLHKEIPETTRTSQMQELHKSLRSLNNFCSQIGDDRPISYCHFSPNSKMLATACWSGLCKLWSVPDCNLLHTLRGHNTNVGAIVFHPKSTVSLDPKDVNLASCAADGSVKLWSLDSDEPVADIEGHTVRVARVMWHPSGRFLGTTCYDRSWRLWDLEAQEEILHQEGHSMGVYDIAFHQDGSLAGTGGLDAFGRVWDLRTGRCIMFLEGHLKEIYGINFSPNGYHIATGSGDNTCKVWDLRQRRCVYTIPAHQNLVTGVKFEPIHGNFLLTGAYDNTAKIWTHPGWSPLKTLAGHEGKVMGLDISSDGQLIATCSYDRTFKLWMAE

The remaining lines, values behind:

Molecule: snRNP200/Brr2 (from UniProt O75643 1-2136)
binding [1]: binds | binding [2]: binds

Molecule: CNOT1 (from UniProt A5YKK6 1-2376)
binding [1]: binds | binding [2]: binds

B1: NHP2L1 (protein, UniProt P55769 1-128)
chain: MTEADVNPKAYPLADAHLTKKLLDLVQQSCNYKQLRKGANEATKTLNRGISEFIVMAADAEPLEIILHLPLLCEDKNVPYVFVRSKQALGRACGVSRPVIACSVTIKEGSQLKQQIQSIQQSIERLLV
binding [1]: binds

B2: Prp3 (protein, UniProt O43395 1-683)
chain: MALSKRELDELKPWIEKTVKRVLGFSEPTVVTAALNCVGKGMDKKKAADHLKPFLDDSTLRFVDKLFEAVEEGRSSRHSKSSSDRSRKRELKEVFGDDSEISKESSGVKKRRIPRFEEVEEEPEVIPGPPSESPGMLTKLQIKQMMEAATRQIEERKKQLSFISPPTPQPKTPSSSQPERLPIGNTIQPSQAATFMNDAIEKARKAAELQARIQAQLALKPGLIGNANMVGLANLHAMGIAPPKVELKDQTKPTPLILDEQGRTVDATGKEIELTHRMPTLKANIRAVKREQFKQQLKEKPSEDMESNTFFDPRVSIAPSQRQRRTFKFHDKGKFEKIAQRLRTKAQLEKLQAEISQAARKTGIHTSTRLALIAPKKELKEGDIPEIEWWDSYIIPNGFDLTEENPKREDYFGITNLVEHPAQLNPPVDNDTPVTLGVYLTKKEQKKLRRQTRREAQKELQEKVRLGLMPPPEPKVRISNLMRVLGTEAVQDPTKVEAHVRAQMAKRQKAHEEANAARKLTAEQRKVKKIKKLKEDISQGVHISVYRVRNLSNPAKKFKIEANAGQLYLTGVVVLHKDVNVVVVEGGPKAQKKFKRLMLHRIKWDEQTSNTKGDDDEESDEEAVKKTNKCVLVWEGTAKDRSFGEMKFKQCPTENMAREHFKKHGAEHYWDLALSESVLESTD
binding [1]: binds | binding [2]: binds

No constants are given. Whether binding was seen depends on the method and setting. In cells and extracts the contact can be indirect. Here binding means that the protein was enriched with, or labelled near, the bait; the list need not be complete. Tags and fused reporters may be left off the sequences shown. One block for each molecule: values may come before it.
